Values from PubChem BioAssay AID1224826 (NIAID, 2016)
This is an unselected part of about 17,000 deposited reagents. About 1,110 of them (6.6%) were called active. 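Active means lowered or raised reporter signal; replicate intensities are raw and not normalised per plate.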 Reagents against one gene are numbered here. Further read-outs or replicates are left out here. No sequences are given here.

Assay: 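Knock-downs that raise or lower Tnf reporter signal after endotoxin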 (primary screen)
System: RAW264.7 G9 macrophages from mouse bearing reporters for p65 (GFP) and the Tnf promoter (mCherry)
Reagent: siRNA pool against mouse genes, 100 nM
Time to read-out: 16 h of LPS stimulation, after 2 days of siRNA transfection
Challenge: bacterial lipopolysaccharide (Salmonella minnesota R595), 10 ng/ml
Read-out: 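Nuclear mCherry signal of the Tnf promoter reporter measured by imaging after background removal, scaled to each plate median and turned into robust z-scores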
Reading the numbers: Tnf reporter robust z-score: higher = stronger Tnf promoter reporter signal after LPS
Rule for the call: 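Called active when robust z-score is at most -1.3, matching the median of the Tlr4 knock-down control, or over 3; control wells and wells with under 50 cells never active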
Meaning of the calls: active = Tnf reporter clearly lowered or raised; inactive = no clear change in Tnf reporter

{"gene symbol": "Eif1 (eukaryotic translation initiation factor 1)", "pool no.": 1, "Tnf reporter robust z-score": -1.43, "fewer than 50 cells in well": "enough cells in well", "outcome": "active"}
{"gene symbol": "Sh2d3c (SH2 domain containing 3C)", "pool no.": 1, "Tnf reporter robust z-score": -0.17, "fewer than 50 cells in well": "enough cells in well", "outcome": "inactive"}
{"gene symbol": "Osbpl10 (oxysterol binding protein-like 10)", "pool no.": 1, "fewer than 50 cells in well": "fewer than 50 cells per well; well left out of calls", "outcome": "inactive"}
{"gene symbol": "Osbpl10 (oxysterol binding protein-like 10)", "pool no.": 2, "Tnf reporter robust z-score": 0.75, "fewer than 50 cells in well": "enough cells in well", "outcome": "inactive"}
{"gene symbol": "Prkcsh (protein kinase C substrate 80K-H)", "pool no.": 1, "Tnf reporter robust z-score": 0.83, "fewer than 50 cells in well": "enough cells in well", "outcome": "inactive"}
{"gene symbol": "Cdh4 (cadherin 4)", "pool no.": 1, "Tnf reporter robust z-score": -0.26, "fewer than 50 cells in well": "enough cells in well", "outcome": "inactive"}
{"gene symbol": "Stx1a (syntaxin 1A (brain))", "pool no.": 1, "Tnf reporter robust z-score": -1.32, "fewer than 50 cells in well": "enough cells in well", "outcome": "active"}
{"gene symbol": "Or7g29 (olfactory receptor family 7 subfamily G member 29)", "pool no.": 1, "fewer than 50 cells in well": "fewer than 50 cells per well; well left out of calls", "outcome": "inactive"}
{"gene symbol": "Ccdc97 (coiled-coil domain containing 97)", "pool no.": 1, "fewer than 50 cells in well": "fewer than 50 cells per well; well left out of calls", "outcome": "inactive"}
{"gene symbol": "Atp2c1 (ATPase, Ca++-sequestering)", "pool no.": 1, "Tnf reporter robust z-score": 0.01, "fewer than 50 cells in well": "enough cells in well", "outcome": "inactive"}
{"gene symbol": "Wdr59 (WD repeat domain 59)", "pool no.": 1, "Tnf reporter robust z-score": 0.65, "fewer than 50 cells in well": "enough cells in well", "outcome": "inactive"}
{"gene symbol": "Ifitm1 (interferon induced transmembrane protein 1)", "pool no.": 1, "Tnf reporter robust z-score": -0.96, "fewer than 50 cells in well": "enough cells in well", "outcome": "inactive"}
{"gene symbol": "Pou4f2 (POU domain, class 4, transcription factor 2)", "pool no.": 1, "Tnf reporter robust z-score": -1.66, "fewer than 50 cells in well": "enough cells in well", "outcome": "active"}
{"gene symbol": "Pecam1 (platelet/endothelial cell adhesion molecule 1)", "pool no.": 1, "Tnf reporter robust z-score": -0.49, "fewer than 50 cells in well": "enough cells in well", "outcome": "inactive"}
{"gene symbol": "4833420G17Rik (RIKEN cDNA 4833420G17 gene)", "pool no.": 1, "fewer than 50 cells in well": "fewer than 50 cells per well; well left out of calls", "outcome": "inactive"}
{"gene symbol": "Fcho1 (FCH domain only 1)", "pool no.": 1, "Tnf reporter robust z-score": 0.17, "fewer than 50 cells in well": "enough cells in well", "outcome": "inactive"}
{"gene symbol": "Tesc (tescalcin)", "pool no.": 1, "Tnf reporter robust z-score": 2.93, "fewer than 50 cells in well": "enough cells in well", "outcome": "inactive"}
{"gene symbol": "Wfdc12 (WAP four-disulfide core domain 12)", "pool no.": 1, "Tnf reporter robust z-score": 0.86, "fewer than 50 cells in well": "enough cells in well", "outcome": "inactive"}
{"gene symbol": "Mvb12a (multivesicular body subunit 12A)", "pool no.": 1, "fewer than 50 cells in well": "fewer than 50 cells per well; well left out of calls", "outcome": "inactive"}
{"gene symbol": "Cdon (cell adhesion associated, oncogene regulated)", "pool no.": 1, "Tnf reporter robust z-score": 0.82, "fewer than 50 cells in well": "enough cells in well", "outcome": "inactive"}
{"gene symbol": "Abhd17a (abhydrolase domain containing 17A)", "pool no.": 1, "Tnf reporter robust z-score": -1.73, "fewer than 50 cells in well": "enough cells in well", "outcome": "active"}
